System: A549 cells
Experiment: 24 h IC50
Assay type: cell-based
Details: read-out: 24 h IC50 value, Table S1

Q: With N.N.[Cl][Pt][Cl] [compound 1, cisplatin, reference compound] as the compound, how does the IC50 read?
A: The IC50 was 12.8 µM.
